Results are given in words; binding and its absence hold for the method and conditions named. In cells and extracts the contact can be indirect. Where a sequence is shown, tags or fusion partners need not be part of it.
Biological target: T1, AtFZL-YFP (Arabidopsis FZO-LIKE with a C-terminal YFP tag) (Arabidopsis thaliana) (UniProt Q1KPV0)
T1 sequence: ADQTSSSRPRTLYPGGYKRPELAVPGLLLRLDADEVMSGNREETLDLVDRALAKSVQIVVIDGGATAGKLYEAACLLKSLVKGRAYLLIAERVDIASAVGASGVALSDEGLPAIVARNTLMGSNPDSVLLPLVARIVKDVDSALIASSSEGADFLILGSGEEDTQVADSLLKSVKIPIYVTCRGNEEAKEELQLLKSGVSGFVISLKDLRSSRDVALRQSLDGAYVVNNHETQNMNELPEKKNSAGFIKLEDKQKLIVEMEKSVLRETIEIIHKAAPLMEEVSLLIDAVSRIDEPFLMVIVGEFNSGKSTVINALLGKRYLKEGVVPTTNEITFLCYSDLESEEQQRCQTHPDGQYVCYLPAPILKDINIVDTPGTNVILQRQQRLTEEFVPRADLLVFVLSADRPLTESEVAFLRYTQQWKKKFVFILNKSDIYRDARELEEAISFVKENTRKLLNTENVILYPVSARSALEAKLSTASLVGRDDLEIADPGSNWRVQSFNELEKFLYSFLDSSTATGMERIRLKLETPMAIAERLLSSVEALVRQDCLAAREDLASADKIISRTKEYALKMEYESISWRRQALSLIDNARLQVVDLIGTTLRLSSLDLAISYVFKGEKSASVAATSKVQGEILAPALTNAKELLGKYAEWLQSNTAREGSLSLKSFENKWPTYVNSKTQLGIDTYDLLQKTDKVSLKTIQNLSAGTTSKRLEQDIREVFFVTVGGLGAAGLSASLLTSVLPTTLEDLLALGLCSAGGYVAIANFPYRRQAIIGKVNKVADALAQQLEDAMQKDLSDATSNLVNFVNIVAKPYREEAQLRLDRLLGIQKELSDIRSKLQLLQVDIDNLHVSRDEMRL
Experiment: co-IP

B1: AtMFP1-RFP (Arabidopsis MAR BINDING FILAMENT-LIKE PROTEIN 1 with an RFP tag) (protein, UniProt Q9LW85 96-726)
chain: DERGNEIKTSKVDLETEVAVVSEGTSPNPFLALLNGLGIFSAGVLGALYALARQDTKAAEETIESLKNQLKDRERALVLKEKDFEAKLQHEQEERKKEVEKAKEEQLSLINQLNSAKDLVTELGRELSSEKKLCEKLKDQIESLENSLSKAGEDKEALETKLREKLDLVEGLQDRINLLSLELKDSEEKAQRFNASLAKKEAELKELNSIYTQTSRDLAEAKLEIKQQKEELIRTQSELDSKNSAIEELNTRITTLVAEKESYIQKLDSISKDYSALKLTSETQAAADAELISRKEQEIQQLNENLDRALDDVNKSKDKVADLTEKYEDSKRMLDIELTTVKNLRHELEGTKKTLQASRDRVSDLETMLDESRALCSKLESELAIVHEEWKEAKERYERNLDAEKQKNEISASELALEKDLRRRVKDELEGVTHELKESSVKNQSLQKELVEIYKKVETSNKELEEEKKTVLSLNKEVKGMEKQILMEREARKSLETDLEEAVKSLDEMNKNTSILSRELEKVNTHASNLEDEKEVLQRSLGEAKNASKEAKENVEDAHILVMSLGKEREVLEKKVKKLEEDLGSAKGEILRMRSQPDSVKAVNSTDNKEKSDNTVTVKKVVRRRKSSTSS
  binding: no binding

Reference: paper doi:10.1101/2022.10.20.512996
